Measurements reported in PubChem BioAssay AID1259308 (NCATS, 2017)
Screen: 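Genes whose loss raises luciferase production in HEK293 cells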 (primary screen). System: human HEK293 embryonic kidney cells stably expressing firefly luciferase (HEK-CMV-Luc2-Hygro). Reagent: single siRNA against human genes, 0.8 pmol siRNA per well. Time to read-out: 72 h. Measurement: 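Reporter luminescence and viable-cell signal on separate replicate plates, given as percent of non-targeting control and median/MAD z-scores, plus per-cell luciferase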. Direction: total luciferase, z-score: higher = more reporter protein produced. Call rule: 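An siRNA counts as active if its total luciferase robust z-score exceeds 3; genes with two or more such siRNAs out of three were retested with fresh siRNAs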. Meaning of the calls: active = raised luciferase; inactive = no rise.
Shown is one part, drawn at random, of about 59,000 deposited reagents. Of all reagents, about 1,510 (2.6%) are marked active. 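Calls use total luciferase alone and ignore viability, so some active siRNAs may act by altering cell number.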 Unmarked entries are inactive. Reagents against one gene are numbered here. Further read-outs or replicates are left out here.

Against PNMA8B (PNMA family member 8B) #1, the entry reads total luciferase, z-score 1.79. Against PNMA8B (PNMA family member 8B) #2 the deposit lists total luciferase, z-score -1.66. With knock-down of PNMA8B (PNMA family member 8B) #3, the record shows total luciferase, z-score 0.598. RHBG (Rh family B glycoprotein) #1 gave total luciferase, z-score -0.958. Knock-down of RHBG (Rh family B glycoprotein) #2 came out at: total luciferase, z-score 0.438. Silencing of RHBG (Rh family B glycoprotein) #3 gave: total luciferase, z-score -0.221.

Against ADRA2C (adrenoceptor alpha 2C) #1, the values are total luciferase, z-score 0.734. With knock-down of ADRA2C (adrenoceptor alpha 2C) #2 the results were total luciferase, z-score -0.209. After knock-down of ADRA2C (adrenoceptor alpha 2C) #3 the results were total luciferase, z-score 2.9. For CCL11 (C-C motif chemokine ligand 11) #1 the deposit lists total luciferase, z-score -0.096. For CCL11 (C-C motif chemokine ligand 11) #2, the entry reads total luciferase, z-score -0.767. Against CCL11 (C-C motif chemokine ligand 11) #3 the deposit lists total luciferase, z-score -0.665.

EVA1B (eva-1 homolog B) #1 scored total luciferase, z-score 4.03 (active). For EVA1B (eva-1 homolog B) #2, the values are total luciferase, z-score -1.33. Against EVA1B (eva-1 homolog B) #3, the entry reads total luciferase, z-score 2.03. With knock-down of BTBD6 (BTB domain containing 6) #1, the screen gave total luciferase, z-score -0.684. Depletion of BTBD6 (BTB domain containing 6) #2 gave: total luciferase, z-score 0.0819. BTBD6 (BTB domain containing 6) #3 gave total luciferase, z-score -0.518.

With knock-down of PREB (prolactin regulatory element binding) #1 the results were total luciferase, z-score 3 (active). For PREB (prolactin regulatory element binding) #2, the entry reads total luciferase, z-score -0.114. With knock-down of PREB (prolactin regulatory element binding) #3, the screen gave total luciferase, z-score -1.91. For MED7 (mediator complex subunit 7) #1, the entry reads total luciferase, z-score -2.24. For MED7 (mediator complex subunit 7) #2, the entry reads total luciferase, z-score -2.4. After knock-down of MED7 (mediator complex subunit 7) #3 the results were total luciferase, z-score -1.37.

Silencing of ODAM (odontogenic, ameloblast associated) #1 came out at: total luciferase, z-score 0.379. ODAM (odontogenic, ameloblast associated) #2 scored total luciferase, z-score 0.741. ODAM (odontogenic, ameloblast associated) #3 gave total luciferase, z-score -0.56. After knock-down of NSG2 (neuronal vesicle trafficking associated 2) #1, the screen gave total luciferase, z-score 0.539. After knock-down of NSG2 (neuronal vesicle trafficking associated 2) #2, the record shows total luciferase, z-score 1.25. Silencing of NSG2 (neuronal vesicle trafficking associated 2) #3 resulted in: total luciferase, z-score 1.84.

Against CSNK1G2 (casein kinase 1 gamma 2) #1, the entry reads total luciferase, z-score -0.174. CSNK1G2 (casein kinase 1 gamma 2) #2 scored total luciferase, z-score -1.74. After knock-down of CSNK1G2 (casein kinase 1 gamma 2) #3, the screen gave total luciferase, z-score 0.194.

5 entries already listed, arranged by “total luciferase, z-score”, descending:
ADRA2C (adrenoceptor alpha 2C) #1 — total luciferase, z-score: 0.734
RHBG (Rh family B glycoprotein) #2 — total luciferase, z-score: 0.438
ADRA2C (adrenoceptor alpha 2C) #2 — total luciferase, z-score: -0.209
RHBG (Rh family B glycoprotein) #3 — total luciferase, z-score: -0.221
RHBG (Rh family B glycoprotein) #1 — total luciferase, z-score: -0.958
